US20090075309A1, “Bisdeoxycoelenterazine derivatives, methods of use, and BRET2 systems” (priority 2007, published 2009)

Test system: Renilla luciferase (Rluc) mutants

SMILES: O=c1c(Cc2ccccc2)nc2c(Cc3ccccc3)[nH]c(-c3ccccc3)cn1-2 [Clz400, coelenterazine-400a]
- emission peak with the Rluc mutants: around 400±5 nm
